Patent US11273152B2, “TRPV2 antagonists” (Instituto de Medicina Molecular João Lobo Antunes, priority 2017, dated 2022)
Entries after “also recorded” stand apart in the source; their conditions may differ. At least one structure is not confirmed: it was looked up by name or label, or the drawing left a doubt.

Legend:
TRPV2 = target: T1, TRPV2 (Homo sapiens, UniProt Q9Y5S1); assay: Intracellular calcium imaging (Fura-2 AM) in HepG2 cells; format: cell-based; conditions: CBD 20 μM; tranilast at 10 μM; 120 s post stimulation
T1 sequence (Q9Y5S1 1-764): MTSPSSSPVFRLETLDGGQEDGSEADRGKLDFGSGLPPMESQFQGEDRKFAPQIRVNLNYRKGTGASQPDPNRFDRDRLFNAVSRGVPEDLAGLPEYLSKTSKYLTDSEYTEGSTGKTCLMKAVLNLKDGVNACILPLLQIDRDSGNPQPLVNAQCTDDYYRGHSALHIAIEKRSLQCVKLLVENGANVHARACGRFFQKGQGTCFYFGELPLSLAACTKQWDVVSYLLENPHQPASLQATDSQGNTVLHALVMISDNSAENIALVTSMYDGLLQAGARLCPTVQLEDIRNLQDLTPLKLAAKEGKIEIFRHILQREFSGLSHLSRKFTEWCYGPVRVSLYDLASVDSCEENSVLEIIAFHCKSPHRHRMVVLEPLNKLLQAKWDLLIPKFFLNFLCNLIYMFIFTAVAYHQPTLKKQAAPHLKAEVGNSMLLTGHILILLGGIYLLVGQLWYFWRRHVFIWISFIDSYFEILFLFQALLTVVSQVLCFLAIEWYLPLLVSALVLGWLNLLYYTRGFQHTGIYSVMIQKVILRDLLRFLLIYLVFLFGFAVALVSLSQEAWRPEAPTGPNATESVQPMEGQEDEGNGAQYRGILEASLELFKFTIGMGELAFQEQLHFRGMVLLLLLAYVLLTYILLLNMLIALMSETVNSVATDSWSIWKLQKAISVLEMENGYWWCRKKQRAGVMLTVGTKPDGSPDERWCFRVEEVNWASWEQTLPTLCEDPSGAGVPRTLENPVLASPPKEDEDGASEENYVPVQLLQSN
Experimental: Cells (ATCC) were grown to 50% confluency in DMEM (Gibco) supplemented with 10% FBS (Gibco), GlutaMax (Gibco), MEM and NEAA (Gibco), 4.5 g/L glucose and 0.11 g/L sodium pyruvate. Cells were seeded in μ-ibidi 8 well plates and transfected with TRPV2-RFP^34 (kindly gifted by Prof. Itaru Kojimu Gunma University, Japan). After 48 h of incubation, cells were subjected to calcium imaging. Intracellular calcium measurements were performed with Fura-2 AM (Life Technologies) and modified from previously described studies.^12 In short, 1 hour before the measurement, cells were loaded with 5 μM Fura-2-AM for 45 minutes. Cell medium was replaced by Tyrod's solution (119 mM NaCl, 5 mM KCl, 2 mM CaCl2, 2 mM MgCl2, 6 g/L glucose, 25 mM HEPES pH 7.4). Simultaneously, the respective treatment was added to the cells (final concentration of 1% DMSO (control), 5 μM piperlongumine and 10 μM tranilast) and cells were allowed to re-adjustment for 15 minutes. Fura-2 AM emissions from 340 nm and 380 nm excitation were recorded for 1 minute before TRPV2 was activated by addition of 4 μM or 20 μM cannabidiol (CBD). Image analysis was done using the MetaFluor Analyst software. The statistical analysis was performed with astatsa.com. After calcium imaging acquisition, the cells were immediately fixed with 4% paraformaldehyde for 15 min. […]

HepG2 cells = assay: Wound-healing scratch assay, HepG2; format: cell-based; conditions: tranilast 10 μM, 24-hour

## COc1ccc(/C=C/C(=O)Nc2ccccc2C(=O)O)cc1OC [tranilast, reference compound]
TRPV2
  Inhibition of CBD evoked calcium influx in HepG2 cells: in similar fashion; also recorded: between control and tranilast (p<0.01)
HepG2 cells
  Cell migration, wound healing: in similar fashion
